± gives the standard deviation of the averaged measurements. The entries are a selection whose mix differs from that of the whole data set. Most entries show no effect beyond the scatter of the controls.
Compound: Nc1ncnc2c1ncn2[C@@H]1O[C@H](COP(=O)(O)OP(=O)(O)OP(=O)(O)O)[C@@H](O)[C@H]1O [adenosine triphosphate]
Assay: NP40-soluble protein abundance relative to vehicle (solubility fold change) (ratio); higher = more soluble protein in presence of ATP
Conditions: concentration: 0.1mM
Outline: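 Jurkat crude lysate (Dounce-homogenised) was treated with eight concentrations from 0.1 to 10 mM for 10 min at room temperature, then 3 min at 37 °C. It was solubilised with 0.8% NP40 and benzonase (60 min, 4 °C) and ultracentrifuged, and the supernatant was TMT-labelled for LC-MS/MS. Intensities were vsn-normalised, and the value is the fold change against the NP40-processed vehicle per replicate, from three independent experiments.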

Sequences of proteins named here, by UniProt entry; tags and fusion partners are left off. A change or cut given only in a name is not applied to a line headed by its entry.
UniProt O75477: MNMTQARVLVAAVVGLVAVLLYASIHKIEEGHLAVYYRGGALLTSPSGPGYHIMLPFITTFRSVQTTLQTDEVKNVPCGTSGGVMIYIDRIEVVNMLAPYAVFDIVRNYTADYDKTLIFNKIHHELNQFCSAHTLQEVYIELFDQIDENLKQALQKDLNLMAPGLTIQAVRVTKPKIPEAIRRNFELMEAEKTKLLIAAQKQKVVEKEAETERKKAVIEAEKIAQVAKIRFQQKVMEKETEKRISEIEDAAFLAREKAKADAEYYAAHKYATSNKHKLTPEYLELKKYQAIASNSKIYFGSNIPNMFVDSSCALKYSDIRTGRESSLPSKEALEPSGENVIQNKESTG
UniProt O75143: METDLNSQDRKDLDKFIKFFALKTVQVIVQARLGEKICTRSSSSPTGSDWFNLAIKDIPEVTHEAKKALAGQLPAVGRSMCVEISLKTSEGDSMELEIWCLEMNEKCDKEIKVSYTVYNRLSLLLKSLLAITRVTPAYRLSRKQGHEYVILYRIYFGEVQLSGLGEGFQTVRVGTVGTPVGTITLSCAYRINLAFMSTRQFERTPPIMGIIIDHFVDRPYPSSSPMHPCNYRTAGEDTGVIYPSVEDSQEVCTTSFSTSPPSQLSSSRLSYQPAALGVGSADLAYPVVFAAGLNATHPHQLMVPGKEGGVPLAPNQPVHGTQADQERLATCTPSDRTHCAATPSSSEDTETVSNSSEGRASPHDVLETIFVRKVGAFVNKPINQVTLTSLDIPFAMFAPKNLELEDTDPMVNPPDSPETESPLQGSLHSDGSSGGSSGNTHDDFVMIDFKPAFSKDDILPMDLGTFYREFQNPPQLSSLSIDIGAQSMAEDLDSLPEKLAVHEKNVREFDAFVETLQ
UniProt O95352: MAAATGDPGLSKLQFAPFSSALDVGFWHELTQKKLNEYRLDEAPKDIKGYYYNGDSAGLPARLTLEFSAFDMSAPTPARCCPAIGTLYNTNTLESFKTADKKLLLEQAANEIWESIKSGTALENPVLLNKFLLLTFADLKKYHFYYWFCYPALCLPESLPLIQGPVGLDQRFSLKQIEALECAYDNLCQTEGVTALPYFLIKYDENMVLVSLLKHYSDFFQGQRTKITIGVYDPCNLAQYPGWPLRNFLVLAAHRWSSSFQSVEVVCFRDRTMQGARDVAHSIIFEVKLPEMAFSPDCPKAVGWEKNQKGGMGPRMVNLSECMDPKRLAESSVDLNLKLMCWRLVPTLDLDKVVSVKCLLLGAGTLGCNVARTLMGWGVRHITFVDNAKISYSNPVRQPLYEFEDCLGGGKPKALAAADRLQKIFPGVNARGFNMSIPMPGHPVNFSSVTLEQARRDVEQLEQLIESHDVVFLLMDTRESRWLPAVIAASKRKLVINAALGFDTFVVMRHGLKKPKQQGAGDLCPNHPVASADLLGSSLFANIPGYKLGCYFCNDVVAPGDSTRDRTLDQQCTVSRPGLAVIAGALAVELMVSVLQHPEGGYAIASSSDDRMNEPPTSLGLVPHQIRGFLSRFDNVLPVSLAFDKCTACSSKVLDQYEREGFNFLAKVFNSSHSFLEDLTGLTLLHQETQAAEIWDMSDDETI
UniProt O60831: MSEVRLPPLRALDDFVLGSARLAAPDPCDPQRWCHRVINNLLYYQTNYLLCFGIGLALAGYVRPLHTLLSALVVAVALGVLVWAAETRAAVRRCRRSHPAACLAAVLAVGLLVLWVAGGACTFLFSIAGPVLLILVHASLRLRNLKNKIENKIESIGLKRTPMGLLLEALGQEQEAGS
UniProt O75419: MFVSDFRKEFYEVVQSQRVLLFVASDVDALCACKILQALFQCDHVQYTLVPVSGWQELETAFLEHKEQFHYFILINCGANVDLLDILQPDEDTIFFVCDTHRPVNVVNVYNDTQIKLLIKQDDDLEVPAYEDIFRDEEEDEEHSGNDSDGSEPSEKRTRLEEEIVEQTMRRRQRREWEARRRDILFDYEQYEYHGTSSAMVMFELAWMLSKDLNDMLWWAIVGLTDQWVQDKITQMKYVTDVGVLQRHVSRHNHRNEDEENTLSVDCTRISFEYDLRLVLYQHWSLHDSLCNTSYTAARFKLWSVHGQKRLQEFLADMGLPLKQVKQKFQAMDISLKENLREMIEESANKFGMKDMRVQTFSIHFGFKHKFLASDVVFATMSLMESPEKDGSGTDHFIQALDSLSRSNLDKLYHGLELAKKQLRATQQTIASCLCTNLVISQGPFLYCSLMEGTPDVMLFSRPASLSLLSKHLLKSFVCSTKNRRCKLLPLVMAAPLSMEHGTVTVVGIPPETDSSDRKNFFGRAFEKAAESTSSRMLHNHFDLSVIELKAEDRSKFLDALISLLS
UniProt O75928, whole entry: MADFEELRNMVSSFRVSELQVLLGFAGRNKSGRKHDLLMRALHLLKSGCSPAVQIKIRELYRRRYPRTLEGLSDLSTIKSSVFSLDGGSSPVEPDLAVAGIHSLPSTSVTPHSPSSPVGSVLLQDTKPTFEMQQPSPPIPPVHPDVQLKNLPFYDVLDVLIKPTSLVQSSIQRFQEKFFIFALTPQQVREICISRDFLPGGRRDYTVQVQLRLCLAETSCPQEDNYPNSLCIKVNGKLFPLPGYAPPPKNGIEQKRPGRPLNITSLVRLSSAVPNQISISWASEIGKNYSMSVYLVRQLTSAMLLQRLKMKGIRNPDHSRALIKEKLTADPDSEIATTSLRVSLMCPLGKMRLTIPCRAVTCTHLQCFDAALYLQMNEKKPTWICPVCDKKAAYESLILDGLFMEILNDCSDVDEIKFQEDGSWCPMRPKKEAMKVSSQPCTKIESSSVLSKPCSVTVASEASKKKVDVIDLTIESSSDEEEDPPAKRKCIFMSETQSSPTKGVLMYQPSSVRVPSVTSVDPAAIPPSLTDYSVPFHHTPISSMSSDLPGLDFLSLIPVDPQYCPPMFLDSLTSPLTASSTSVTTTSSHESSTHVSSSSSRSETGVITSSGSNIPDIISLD
UniProt O75368: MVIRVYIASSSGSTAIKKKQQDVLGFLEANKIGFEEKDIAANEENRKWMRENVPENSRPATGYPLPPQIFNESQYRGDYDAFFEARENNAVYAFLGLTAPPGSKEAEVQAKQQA
UniProt O75223: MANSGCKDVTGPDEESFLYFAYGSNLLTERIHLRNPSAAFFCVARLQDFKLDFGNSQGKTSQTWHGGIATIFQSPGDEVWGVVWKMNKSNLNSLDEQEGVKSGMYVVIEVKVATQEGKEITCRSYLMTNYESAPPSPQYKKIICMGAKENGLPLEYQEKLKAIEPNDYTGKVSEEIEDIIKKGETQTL
UniProt O75794: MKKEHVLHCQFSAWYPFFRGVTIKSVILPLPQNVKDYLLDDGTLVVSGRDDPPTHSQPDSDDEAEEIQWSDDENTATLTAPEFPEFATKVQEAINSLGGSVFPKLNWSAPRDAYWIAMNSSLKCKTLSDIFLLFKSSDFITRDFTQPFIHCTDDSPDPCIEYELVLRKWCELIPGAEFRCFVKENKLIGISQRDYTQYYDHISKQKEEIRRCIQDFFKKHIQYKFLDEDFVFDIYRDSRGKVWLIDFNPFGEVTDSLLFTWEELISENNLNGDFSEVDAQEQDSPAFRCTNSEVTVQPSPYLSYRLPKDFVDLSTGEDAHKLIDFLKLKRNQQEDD
UniProt O95298, whole entry: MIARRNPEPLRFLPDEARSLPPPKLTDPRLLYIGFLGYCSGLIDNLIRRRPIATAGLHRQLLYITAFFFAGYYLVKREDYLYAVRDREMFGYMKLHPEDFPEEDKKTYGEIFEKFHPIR
UniProt O75691: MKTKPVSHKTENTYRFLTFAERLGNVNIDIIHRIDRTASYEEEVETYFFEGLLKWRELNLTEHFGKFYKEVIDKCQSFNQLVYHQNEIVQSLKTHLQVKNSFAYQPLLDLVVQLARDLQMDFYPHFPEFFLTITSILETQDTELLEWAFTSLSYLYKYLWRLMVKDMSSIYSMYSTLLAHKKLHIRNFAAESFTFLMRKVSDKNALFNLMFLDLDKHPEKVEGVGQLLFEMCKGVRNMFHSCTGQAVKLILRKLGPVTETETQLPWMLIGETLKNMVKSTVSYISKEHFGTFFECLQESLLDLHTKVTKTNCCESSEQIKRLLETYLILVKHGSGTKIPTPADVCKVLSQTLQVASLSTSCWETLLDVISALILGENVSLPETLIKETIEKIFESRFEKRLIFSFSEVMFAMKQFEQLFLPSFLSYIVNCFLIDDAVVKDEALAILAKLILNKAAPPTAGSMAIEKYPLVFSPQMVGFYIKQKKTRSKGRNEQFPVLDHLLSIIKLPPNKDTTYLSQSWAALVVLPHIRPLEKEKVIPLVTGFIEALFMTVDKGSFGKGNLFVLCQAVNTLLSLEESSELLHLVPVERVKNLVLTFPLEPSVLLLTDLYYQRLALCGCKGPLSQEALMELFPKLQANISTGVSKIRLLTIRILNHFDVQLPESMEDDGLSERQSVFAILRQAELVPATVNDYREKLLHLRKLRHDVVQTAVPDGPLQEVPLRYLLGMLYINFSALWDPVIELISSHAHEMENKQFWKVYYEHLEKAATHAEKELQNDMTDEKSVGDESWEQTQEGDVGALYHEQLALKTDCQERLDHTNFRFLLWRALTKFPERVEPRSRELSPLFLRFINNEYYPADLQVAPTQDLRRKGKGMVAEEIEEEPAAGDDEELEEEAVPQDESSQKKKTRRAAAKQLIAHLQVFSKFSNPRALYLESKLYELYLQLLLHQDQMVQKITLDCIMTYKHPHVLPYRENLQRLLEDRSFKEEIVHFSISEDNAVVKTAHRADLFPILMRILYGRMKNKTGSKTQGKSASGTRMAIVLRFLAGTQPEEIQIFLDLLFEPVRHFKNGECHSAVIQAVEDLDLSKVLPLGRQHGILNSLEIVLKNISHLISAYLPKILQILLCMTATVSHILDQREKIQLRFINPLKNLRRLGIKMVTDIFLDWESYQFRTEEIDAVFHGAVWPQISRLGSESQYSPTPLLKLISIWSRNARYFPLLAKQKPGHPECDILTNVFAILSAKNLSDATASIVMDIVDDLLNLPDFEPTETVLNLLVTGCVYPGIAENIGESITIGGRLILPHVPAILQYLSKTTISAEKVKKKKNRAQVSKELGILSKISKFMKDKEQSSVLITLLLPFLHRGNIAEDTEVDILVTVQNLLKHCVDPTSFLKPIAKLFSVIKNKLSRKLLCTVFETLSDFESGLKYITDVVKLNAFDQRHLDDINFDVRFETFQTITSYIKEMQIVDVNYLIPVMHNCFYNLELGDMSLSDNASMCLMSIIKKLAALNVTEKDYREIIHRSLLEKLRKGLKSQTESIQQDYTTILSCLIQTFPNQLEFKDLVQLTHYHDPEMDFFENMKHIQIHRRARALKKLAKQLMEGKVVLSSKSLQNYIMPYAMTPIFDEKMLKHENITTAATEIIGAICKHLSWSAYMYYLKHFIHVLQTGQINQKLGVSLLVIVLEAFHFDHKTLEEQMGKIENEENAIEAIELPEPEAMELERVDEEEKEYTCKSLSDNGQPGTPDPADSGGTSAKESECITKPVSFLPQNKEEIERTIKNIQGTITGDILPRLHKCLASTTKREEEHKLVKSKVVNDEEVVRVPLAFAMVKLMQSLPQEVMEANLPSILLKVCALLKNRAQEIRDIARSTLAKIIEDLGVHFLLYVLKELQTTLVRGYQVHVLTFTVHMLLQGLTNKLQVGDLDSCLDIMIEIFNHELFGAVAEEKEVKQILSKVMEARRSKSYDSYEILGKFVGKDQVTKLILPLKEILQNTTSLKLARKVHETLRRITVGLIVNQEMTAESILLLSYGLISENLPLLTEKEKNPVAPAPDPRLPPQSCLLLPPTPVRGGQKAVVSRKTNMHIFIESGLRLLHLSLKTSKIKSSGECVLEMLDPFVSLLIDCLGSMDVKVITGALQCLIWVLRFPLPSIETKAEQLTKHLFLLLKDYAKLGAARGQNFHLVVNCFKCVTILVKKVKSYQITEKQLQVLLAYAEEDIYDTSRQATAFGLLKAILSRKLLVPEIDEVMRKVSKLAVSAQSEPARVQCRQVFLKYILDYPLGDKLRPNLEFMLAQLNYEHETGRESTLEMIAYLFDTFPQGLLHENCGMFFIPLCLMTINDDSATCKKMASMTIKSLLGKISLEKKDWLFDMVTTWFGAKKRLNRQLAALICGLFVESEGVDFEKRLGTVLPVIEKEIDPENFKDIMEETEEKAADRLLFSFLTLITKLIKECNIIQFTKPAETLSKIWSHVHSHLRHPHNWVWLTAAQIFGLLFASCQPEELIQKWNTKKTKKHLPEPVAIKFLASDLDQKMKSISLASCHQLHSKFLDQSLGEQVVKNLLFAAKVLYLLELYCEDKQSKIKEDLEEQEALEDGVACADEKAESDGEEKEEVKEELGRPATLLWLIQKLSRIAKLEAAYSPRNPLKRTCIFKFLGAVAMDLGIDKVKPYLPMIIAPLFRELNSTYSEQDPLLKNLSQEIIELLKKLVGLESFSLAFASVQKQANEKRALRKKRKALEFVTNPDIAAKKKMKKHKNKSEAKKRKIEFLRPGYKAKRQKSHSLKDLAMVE

Target	NP40-soluble protein abundance
UniProt O75528	0.974 ± 0.038
UniProt O95251 and related entries	0.957 ± 0.092
UniProt O95163	1.05 ± 0.054
UniProt O94762 and related entries	1 ± 0.024
UniProt O95297 and related entries	0.889 ± 0.028
UniProt O75787 and related entries	0.992 ± 0.055
UniProt O75175 and related entries	0.981 ± 0.033
ERLIN1 (UniProt O75477)	0.978 ± 0.03
ZFPL1 (UniProt O95159)	0.999 ± 0.1
UniProt O75145 and related entries	1 ± 0.039
UniProt O75143 and related entries	0.991 ± 0.036
UniProt O60502 and related entries	1.02 ± 0.034
ATG7 (UniProt O95352)	1.03 ± 0.017
UniProt O95782 and related entries	1.03 ± 0.037
UniProt O60831 and related entries	0.972 ± 0.049
UniProt O75419 and related entries	1.03 ± 0.079
UniProt O75534 and related entries	1.04 ± 0.054
UniProt O75928 and related entries	1.06 ± 0.083
SH3BGRL (UniProt O75368)	0.9505 ± 0.0039
GGCT (UniProt O75223)	0.9349 ± 0.0049
UniProt O75179 and related entries	0.971 ± 0.025
CDC123 (UniProt O75794)	1.03 ± 0.05
GLRX3 (UniProt O76003)	1.02 ± 0.046
UniProt O95298 and related entries	0.908 ± 0.15
UTP20 (UniProt O75691)	1.04 ± 0.059

Two entries from above, as a markdown table.

| Target | NP40-soluble protein abundance |
| --- | --- |
| UniProt O95163 | 1.05 ± 0.054 |
| UniProt O94762 and related entries | 1 ± 0.024 |

From the supplement of paper PMC6411743
